Some entries share one result that the patent states for a list of compounds.
Biological target: T1, lysosomal acid lipase (LAL) (Homo sapiens, UniProt P38571)
T1 construct: from tissue; host or cells: dried blood spots (DBS) from healthy adults, healthy children and LAL-deficient patients
T1 sequence (P38571 77-399): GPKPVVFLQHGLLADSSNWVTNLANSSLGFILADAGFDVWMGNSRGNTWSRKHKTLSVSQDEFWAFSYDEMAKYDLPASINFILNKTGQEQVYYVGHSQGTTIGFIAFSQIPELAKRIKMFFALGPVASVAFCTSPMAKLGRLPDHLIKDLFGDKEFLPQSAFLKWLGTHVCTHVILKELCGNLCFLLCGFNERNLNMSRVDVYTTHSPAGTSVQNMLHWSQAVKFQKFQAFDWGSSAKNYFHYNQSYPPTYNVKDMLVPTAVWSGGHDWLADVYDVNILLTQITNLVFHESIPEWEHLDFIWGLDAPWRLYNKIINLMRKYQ
Test: Testing the library of palmitoyl-4MU analogs as LAL substrates with DBS, with and without Lalistat-2, UPLC-MS/MS
Assay type: biochemical
Description: The library of palmitoyl-4MU analogs was tested as LAL substrates as follows. Assay cocktail was a solution of 10:1 buffer to substrate stock, each warmed to 37° C. The substrate stock contained 3.7 mM substrate and 0.5% cardiolipin in ethanol. The buffer contained 0.15 M sodium acetate, pH 4.0, and 2.5 mM sodium taurodeoxycholate. Rehydrated blood mixture (40 mL) was combined with 10 mL of H2O or 30 mM Lalistat-2 in an Eppendorf 1.5 mL polypropylene tube and pre-incubated for 15 min at 37° C. with orbital shaking at 250 rpm. Assay cocktail (100 or 150 mL) was added and samples were incubated for 3 hr at 37° C. with orbital shaking at 250 rpm. Assay was quenched by first flash freezing to −80° C. followed by subsequent addition of 400 mL of ethyl acetate and thawing. Samples were then vortexed and centrifuged at 2700×g for 5 min. Top ethyl acetate layer (200 mL) was transferred to an autosampler plate and blown dry under nitrogen gas then resuspended in 1:1 H2O:methanol solution, and […] per well injected for analysis by UPLC-MS/MS. The LC-MS/MS data was converted into mmole of product by using an external standard of 2.5 nmole (the individual corresponding coumarins) spiked into 40 mL rehydrated blood in a 1.5 mL Eppendorf polypropylene tube incubated separately from the assay cocktail, which were quenched immediately following incubation. […]

CCCCCCCCCCCCCCCC(=O)Oc1ccc2c(CCC)cc(=O)oc2c1C [Compound 1, 4-propyl-8-methyl-7-palmitoyloxycoumarin]
LAL-specific activity relative to that measured with palmitoyl-4MU: greater than 90%

From US11396499B2, “Lysosomal acid lipase assay” (University of Washington, priority 2018, dated 2022)
